This passage reports binding results from PMC9136512.

For the assay, the target named is T1, CDK5RAP3 (CDK5 regulatory subunit associated protein 3) (not stated (endogenous; mouse MEFs or human MCF7, cells not named for the co-IP)), Q99LM2.
T1 chain: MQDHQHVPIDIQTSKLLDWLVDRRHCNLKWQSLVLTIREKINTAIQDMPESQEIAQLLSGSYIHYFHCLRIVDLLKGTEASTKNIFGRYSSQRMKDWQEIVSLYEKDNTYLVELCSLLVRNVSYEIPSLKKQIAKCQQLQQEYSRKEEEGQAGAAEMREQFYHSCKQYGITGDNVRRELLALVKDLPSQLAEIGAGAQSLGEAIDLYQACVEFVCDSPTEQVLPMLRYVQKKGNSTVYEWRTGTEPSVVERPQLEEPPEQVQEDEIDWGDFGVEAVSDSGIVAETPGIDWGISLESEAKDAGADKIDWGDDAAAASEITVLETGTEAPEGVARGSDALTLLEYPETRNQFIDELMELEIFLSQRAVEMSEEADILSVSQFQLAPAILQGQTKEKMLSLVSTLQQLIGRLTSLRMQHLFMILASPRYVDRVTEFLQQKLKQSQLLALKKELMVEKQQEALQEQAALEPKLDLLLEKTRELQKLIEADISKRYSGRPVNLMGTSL
Briefly: co-IP; anti-CDK5RAP3 antibody (IgG as control) added to the cell lysate overnight at 4°C, r-protein A/G magnetic beads 2 h at room temperature, Western blot; cells not named. Conditions: remark: other sources report otherwise.

These are yes or no findings as the source states them, for the method shown. In cells and extracts the contact can be indirect. Some binding calls cover weakened binding; strength is not graded here.

B1: DDRGK1, Q80WW9 1-315 (protein)
chain: MVGPWVYLVAAVLLIGLILFLTRSRGRAAAADGEPLHNEEERAGAGQVGRSLPQESEEQRTGSRPRRRRDLGSRLQAQRRAQRVAWEDGDENVGQTVIPAQEEEGIEKPAEVHPTGKIGAKKLRKLEEKQARKAQREAEEAEREERKRLESQREAEWKKEEERLRLKEEQKEEEERKAQEEQARREHEEYLKLKEAFVVEEEGVSETMTEEQSHSFLTEFINYIKKSKVVLLEDLAFQMGLRTQDAINRIQDLLTEGTLTGVIDDRGKFIYITPEELAAVANFIRQRGRVSITELAQASNSLISWGQDLPAQASA
As for B1, the binding result is listed as “binds”.
